Results deposited as PubChem BioAssay AID686938 (Drosophila RNAi Screening Center, 2013).

Aim: 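Knock-downs reducing store-operated calcium influx in Drosophila cells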 (primary screen)
Cells: Drosophila S2R+ cells
Knock-down reagent: long dsRNA against Drosophila genes, about 0.25 µg dsRNA per well, roughly 10,000 cells
Timing: 5 days of knock-down before the calcium assay
Conditions: thapsigargin (SERCA pump blocker) to empty calcium stores; entry signal taken 4 min after adding it
Detection: 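Per-well fluo-4 fluorescence in two replicates, unnormalised, measured in resting cells and 4 min after store depletion by the SERCA blocker thapsigargin; ratio of the two present in few wells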
Scale: calcium entry signal: higher = stronger calcium signal after store depletion; resting calcium signal: higher = higher resting calcium signal
Hit rule: 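Called when the plate z-score of the entry-to-rest ratio, mean of duplicates, falls below −3; wells with low overall dye signal (Fmax z below −2) or more than five off-targets excluded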
Calls: active = strongly reduced calcium entry; inactive = no strong reduction
The deposit covers about 23,000 reagents; below is a random part of those that have a named target and a result. Over the whole deposit, 75 (0.33%) got an active call. 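Raw plate signals without normalisation; calls rest on plate z-scores that were not deposited; ratio present for only 364 wells.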 Names joined by + are all predicted targets of the reagent. Reagent sequences are not shown. Not stated in the record: the dose of the treatment.

Gene | DRSC id | calcium entry signal, replicate 1 (fluorescence units) | calcium entry signal, replicate 2 (fluorescence units) | resting calcium signal, replicate 1 (fluorescence units) | resting calcium signal, replicate 2 (fluorescence units) | activity call
stl (stall) | DRSC04396 | 3.95e7 | – | 1.98e7 | – | inactive
CG9662 | DRSC00723 | 2.53e7 | 2.37e7 | 1.22e7 | 1.12e7 | inactive
BckdhB (Branched chain keto acid dehydrogenase E1 subunit beta) | DRSC21183 | 4.17e7 | 4.70e7 | 2.16e7 | 2.08e7 | inactive
CG17841 | DRSC17737 | 5.05e7 | 4.83e7 | 2.06e7 | 2.11e7 | inactive
Vinc (Vinculin) | DRSC18728 | 4.63e7 | 4.44e7 | 2.10e7 | 2.16e7 | inactive
CG5569 | DRSC04514 | 4.24e7 | 5.31e7 | 2.09e7 | 2.32e7 | inactive
org-1 (optomotor-blind-related-gene-1) | DRSC18810 | 3.29e7 | 4.56e7 | 1.80e7 | 2.49e7 | inactive
org-1 (optomotor-blind-related-gene-1) | DRSC22974 | 4.85e7 | 3.49e7 | 2.27e7 | 1.37e7 | inactive
CG34315 + Orc3 | DRSC07642 | 4.04e7 | 3.28e7 | 1.81e7 | 1.65e7 | inactive
CG13920 | DRSC08389 | 3.98e7 | 2.97e7 | 1.91e7 | 1.55e7 | inactive
vg (vestigial) | DRSC07715 | 3.63e7 | 6.61e7 | 1.80e7 | 3.00e7 | inactive
vg (vestigial) | DRSC22669 | 3.72e7 | 3.19e7 | 1.75e7 | 1.38e7 | inactive
IleRS (Isoleucyl-tRNA synthetase) | DRSC11667 | 2.23e7 | 3.25e7 | 1.18e7 | 2.57e7 | inactive
Gyc88E (Guanylyl cyclase at 88E) | DRSC15547 | 4.34e7 | 6.10e7 | 2.06e7 | 6.50e7 | inactive
CG32111 (retired record) | DRSC09203 | 2.85e7 | 3.29e7 | 1.42e7 | 1.51e7 | inactive
Gr58c (Gustatory receptor 58c) | DRSC04136 | 4.62e7 | 5.15e7 | 2.12e7 | 2.40e7 | inactive
Ciz1 (Ciz1 zinc finger protein) | DRSC09675 | 1.81e7 | 2.97e7 | 1.15e7 | 1.52e7 | inactive
CG32681 | DRSC17646 | 3.32e7 | 3.60e7 | 1.48e7 | 1.68e7 | inactive
CG7715 | DRSC16301 | 3.13e7 | 3.75e7 | 6.21e7 | 1.78e7 | inactive
CG34221 | DRSC06150 | 4.30e7 | 4.27e7 | 1.83e7 | 1.93e7 | inactive
Mip (Myoinhibiting peptide precursor) | DRSC10639 | 3.85e7 | 5.30e7 | 1.90e7 | 3.31e7 | inactive
lncRNA:CR32385 (long non-coding RNA:CR32385) | DRSC22966 | 2.36e7 | 2.65e7 | 1.21e7 | 1.02e7 | inactive
CG13078 | DRSC02182 | 4.50e7 | 5.30e7 | 2.16e7 | 2.26e7 | inactive
CG15546 | DRSC15084 | 4.02e7 | 6.09e7 | 1.98e7 | 2.49e7 | inactive
CG15546 | DRSC22831 | 2.88e7 | 4.47e7 | 1.33e7 | 2.02e7 | inactive
pira (pirate) | DRSC19494 | 3.07e7 | 4.86e7 | 1.55e7 | 2.37e7 | inactive
Uba4 (Ubiquitin-like activating enzyme 4) | DRSC02194 | 3.36e7 | 4.89e7 | 1.67e7 | 2.10e7 | inactive
zetaCOP (Coat Protein (coatomer) zeta) | DRSC11412 | 2.12e7 | 2.88e7 | 1.75e7 | 2.01e7 | inactive
Pgant5 (Polypeptide N-Acetylgalactosaminyltransferase 5) | DRSC03149 | 4.29e7 | – | 2.07e7 | – | inactive
CG1750 | DRSC15240 | 2.71e7 | 2.31e7 | 1.60e7 | 1.16e7 | inactive
CG31460 | DRSC14370 | 2.37e7 | 3.17e7 | 1.10e7 | 1.41e7 | inactive
CG13531 | DRSC04173 | 4.82e7 | 4.63e7 | 2.31e7 | 2.11e7 | inactive

Reformatted: 7 of the entries above.
stl (stall) [DRSC04396]: calcium entry signal, replicate 1 (fluorescence units) = 3.95e7; resting calcium signal, replicate 1 (fluorescence units) = 1.98e7; activity call = inactive
CG9662 [DRSC00723]: calcium entry signal, replicate 1 (fluorescence units) = 2.53e7; calcium entry signal, replicate 2 (fluorescence units) = 2.37e7; resting calcium signal, replicate 1 (fluorescence units) = 1.22e7; resting calcium signal, replicate 2 (fluorescence units) = 1.12e7; activity call = inactive
BckdhB (Branched chain keto acid dehydrogenase E1 subunit beta) [DRSC21183]: calcium entry signal, replicate 1 (fluorescence units) = 4.17e7; calcium entry signal, replicate 2 (fluorescence units) = 4.70e7; resting calcium signal, replicate 1 (fluorescence units) = 2.16e7; resting calcium signal, replicate 2 (fluorescence units) = 2.08e7; activity call = inactive
CG17841 [DRSC17737]: calcium entry signal, replicate 1 (fluorescence units) = 5.05e7; calcium entry signal, replicate 2 (fluorescence units) = 4.83e7; resting calcium signal, replicate 1 (fluorescence units) = 2.06e7; resting calcium signal, replicate 2 (fluorescence units) = 2.11e7; activity call = inactive
Vinc (Vinculin) [DRSC18728]: calcium entry signal, replicate 1 (fluorescence units) = 4.63e7; calcium entry signal, replicate 2 (fluorescence units) = 4.44e7; resting calcium signal, replicate 1 (fluorescence units) = 2.10e7; resting calcium signal, replicate 2 (fluorescence units) = 2.16e7; activity call = inactive
CG5569 [DRSC04514]: calcium entry signal, replicate 1 (fluorescence units) = 4.24e7; calcium entry signal, replicate 2 (fluorescence units) = 5.31e7; resting calcium signal, replicate 1 (fluorescence units) = 2.09e7; resting calcium signal, replicate 2 (fluorescence units) = 2.32e7; activity call = inactive
org-1 (optomotor-blind-related-gene-1) [DRSC18810]: calcium entry signal, replicate 1 (fluorescence units) = 3.29e7; calcium entry signal, replicate 2 (fluorescence units) = 4.56e7; resting calcium signal, replicate 1 (fluorescence units) = 1.80e7; resting calcium signal, replicate 2 (fluorescence units) = 2.49e7; activity call = inactive

Additional results follow.
Gene | DRSC id | calcium entry signal, replicate 1 (fluorescence units) | calcium entry signal, replicate 2 (fluorescence units) | resting calcium signal, replicate 1 (fluorescence units) | resting calcium signal, replicate 2 (fluorescence units) | activity call
CG9503 | DRSC20186 | 4.49e7 | 3.10e7 | 2.13e7 | 1.45e7 | inactive
CG9503 | DRSC21766 | 2.85e7 | 3.22e7 | 1.53e7 | 1.54e7 | inactive
Sema2b (Semaphorin 2b) | DRSC05609 | 2.52e7 | 3.22e7 | 1.19e7 | 1.57e7 | inactive
Sema2b (Semaphorin 2b) | DRSC05611 | 2.26e7 | 3.07e7 | 1.10e7 | 1.52e7 | inactive
Sema2b (Semaphorin 2b) | DRSC06867 | 5.20e7 | 6.33e7 | 2.21e7 | 2.83e7 | inactive
CG11247 | DRSC11643 | 3.09e7 | 5.58e7 | 1.46e7 | 2.63e7 | inactive
CG11247 | DRSC21901 | 2.85e7 | 4.41e7 | 1.44e7 | 2.14e7 | inactive
Cf2 (Chorion factor 2) | DRSC00744 | 2.70e7 | 3.44e7 | 1.43e7 | 1.65e7 | inactive
Cf2 (Chorion factor 2) | DRSC23015 | 3.90e7 | 3.92e7 | 1.79e7 | 1.69e7 | inactive
CG15445 | DRSC20517 | 2.75e7 | 3.10e7 | 1.40e7 | 1.48e7 | inactive
eRF1 (eukaryotic translation release factor 1) | DRSC11779 | 2.66e7 | 2.11e7 | 2.42e7 | 1.34e7 | inactive
Arp5 (Actin-related protein 5) | DRSC16350 | 5.63e7 | 4.22e7 | 2.55e7 | 1.92e7 | inactive
CG1542 | DRSC15035 | 1.83e7 | 1.36e7 | 1.15e7 | 8.63e6 | inactive
Fs (Follistatin) | DRSC06258 | 2.21e7 | 2.23e7 | 1.03e7 | 1.04e7 | inactive
Fs (Follistatin) | DRSC06259 | 3.45e7 | 4.60e7 | 1.77e7 | 2.15e7 | inactive
spz5 (spatzle 5) | DRSC08645 | 4.70e7 | 3.72e7 | 2.20e7 | 1.91e7 | inactive
CG32237 | DRSC08312 | 2.77e7 | 3.77e7 | 1.44e7 | 1.57e7 | inactive
CG32237 | DRSC08315 | 2.81e7 | 4.29e7 | 1.43e7 | 1.89e7 | inactive
Past1 (Putative Achaete Scute Target 1) | DRSC16784 | 3.59e7 | 4.03e7 | 1.75e7 | 2.05e7 | inactive
eIF2beta (eukaryotic translation initiation factor 2 subunit beta) | DRSC11341 | 1.15e7 | 1.22e7 | 8.23e6 | 8.09e6 | inactive
ND-23 (NADH dehydrogenase (ubiquinone) 23 kDa subunit) | DRSC15526 | 2.44e7 | 2.63e7 | 1.13e7 | 1.09e7 | inactive
CG8490 | DRSC07194 | 3.43e7 | 4.21e7 | 1.54e7 | 1.95e7 | inactive
CG33337 | DRSC13632 | 2.87e7 | 6.56e7 | 1.47e7 | 3.38e7 | inactive
CG12818 | DRSC14556 | 3.83e7 | 3.40e7 | 1.75e7 | 1.75e7 | inactive
msps (mini spindles) | DRSC17004 | 3.04e7 | 2.55e7 | 1.51e7 | 1.38e7 | inactive
CG42758 | DRSC10021 | 4.48e7 | 7.24e7 | 2.03e7 | 2.86e7 | inactive
